Source: publication doi:10.1101/2025.04.24.648904
No constants are given. Whether binding was seen depends on the method and setting.

Target: T1, Sgt1 (Suppressor of the G2 Allele of Skp1), full length (S. cerevisiae) (UniProt Q08446)
T1 sequence (chain, Atto488 (maleimide) label where it is the labeled species in aUC): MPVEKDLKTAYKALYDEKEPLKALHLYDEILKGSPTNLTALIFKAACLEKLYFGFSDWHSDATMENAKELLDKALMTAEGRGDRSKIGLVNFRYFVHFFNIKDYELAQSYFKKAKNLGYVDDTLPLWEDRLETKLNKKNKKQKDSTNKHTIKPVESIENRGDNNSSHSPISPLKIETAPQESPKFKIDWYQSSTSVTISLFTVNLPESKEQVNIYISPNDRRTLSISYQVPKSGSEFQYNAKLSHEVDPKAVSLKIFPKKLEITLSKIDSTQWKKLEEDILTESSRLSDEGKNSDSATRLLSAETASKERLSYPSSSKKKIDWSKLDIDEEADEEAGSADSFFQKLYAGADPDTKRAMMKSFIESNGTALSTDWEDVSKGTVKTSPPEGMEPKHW
Assay: AUC

binding: no binding
Substance: Hsp70 (hHsp70)
